Laboratory results from patent US12521402B2, “Biomarker and drug combinations for heart failure prediction” (Endothelium Scanning Nanotechnology Limited, priority 2022, dated 2026).

B1: SIAE (protein, UniProt Q9HAT2 24-523, looked up)
Sialate O-acetylesterase: IGFRFASYINNDMVLQKEPAGAVIWGFGTPGATVTVTLRQGQETIMKKVTSVKAHSDTWMVVLDPMKPGGPFEVMAQQTLEKINFTLRVHDVLFGDVWLCSGQSNMQMTVLQIFNATRELSNTAAYQSVRILSVSPIQAEQELEDLVAVDLQWSKPTSENLGHGYFKYMSAVCWLFGRHLYDTLQYPIGLIASSWGGTPIEAWSSGRSLKACGVPKQGSIPYDSVTGPSKHSVLWNAMIHPLCNMTLKGVVWYQGESNINYNTDLYNCTFPALIEDWRETFHRGSQGQTERFFPFGLVQLSSDLSKKSSDDGFPQIRWHQTADFGYVPNPKMPNTFMAVAMDLCDRDSPFGSIHPRDKQTVAYRLHLGARALAYGEKNLTFEGPLPEKIELLAHKGLLNLTYYQQIQVQKKDNKIFEISCCSDHRCKWLPASMNTVSTQSLTLAIDSCHGTVVALRYAWTTWPCEYKQCPLYHPSSALPAPPFIAFITDQGPGHQSNVAK
B2: PRB2 (protein, UniProt P02812 17-416, looked up)
Basic salivary proline-rich …: QNLNEDVSQEESPSLIAGNPQGAPPQGGNKPQGPPSPPGKPQGPPPQGGNQPQGPPPPPGKPQGPPPQGGNKPQGPPPPGKPQGPPPQGDKSRSPRSPPGKPQGPPPQGGNQPQGPPPPPGKPQGPPPQGGNKPQGPPPPGKPQGPPPQGDNKSRSSRSPPGKPQGPPPQGGNQPQGPPPPPGKPQGPPPQGGNKPQGPPPPGKPQGPPPQGDNKSQSARSPPGKPQGPPPQGGNQPQGPPPPPGKPQGPPPQGGNKPQGPPPPGKPQGPPPQGGSKSRSSRSPPGKPQGPPPQGGNQPQGPPPPPGKPQGPPPQGGNKPQGPPPPGKPQGPPPQGGSKSRSARSPPGKPQGPPQQEGNNPQGPPPPAGGNPQQPQAPPAGQPQGPPRPPQGGRPSRPPQ

Assay: Saliva proteomics: biomarker quantification by mass spectrometry SWATH in participants at risk of heart failure vs controls
Design: species or system human
Settings: for AtRisk average: 'at risk' of heart failure group mean; for Control average: control group mean
[1] = saliva, mass spectrometry SWATH, 20 samples
[2] = saliva, mass spectrometry SWATH quantification

| Molecule | Control vs Risk (differential expression (fold) between control and at-risk averages, saliva) | AtRisk average [1] | Control average [1] | Control vs Risk (differential expression (fold) control vs 'at risk', printed as larger/smaller average whatever the direction) | AtRisk average [2] | Control average [2] |
| --- | --- | --- | --- | --- | --- | --- |
| B1 | 1.54 | 79,650 ng/ml | 122,586 ng/ml |  |  |  |
| B2 |  |  |  | 4.38 | 13,760,720 ng/ml | 60,289,539 ng/ml |
